Where “and” joins values, the source holds several entries; their conditions need not be identical. Equal values may be shown once. Where a name gives a salt, the structure may show the parent alone. Read-outs that look alike come from different tables or passages of the source.
Tested on: 60 cancer cell lines (NCI 60 cancer cell line series)
Test: NCI-DTP in vitro cancer screen, sulforhodamine B (SRB) growth inhibition, 48 hour exposure
Format: cell-based, human
Description: Cancer Cell Line Preparation. Sixty cancer cell lines were obtained from the National Cancer Institute Developmental Therapeutics Program (NCI-DTP). Procedures for growing cells and testing compounds have been described previously (Scudiero et al., Cancer Res. 1988, 48:4827-4833; Stinson et al., Anticancer Res.; Myers et al., Electrophoresis 1997, 18:647-653). Cells are plated on day 0 at a density individualized for each cell line so that they will generally be sub-confluent at the end of the assay period. On day 1, a compound is added in the format for a duplicate-well, 5-dose, ten-fold interval dose response study.
No-drug, no-cell and no-growth controls are included. On day 3 the cells are processed for staining with sulforhodamine B (SRB), which reflects the amount of cell mass present at the end of a 48 hour exposure to the test agent. From dose response curves based on the SRB data, various parameters can be determined. […] More precisely, the quantity used in the calculation to be described is the potency measure −log{GI50}.
Activity database (A). […] This subset of compounds was selected from the larger 23,000 compound database available from the DTP. The compounds were selected on the basis of their known mechanism of action and chemical structure. The average potency −log{GI50} was extracted from the comma-delimited text files available through the Web at http://www.nci.nih.gov/intra/lmp/jnwbio.html. Subsequently, these −log{GI50} values were inspected manually and classified as indicating either Low, Medium or High sensitivity to each compound.

[1] = number of the cell lines classified High (3) sensitivity
[2] = number of the cell lines classified Low (1) sensitivity
[3] = number of the cell lines classified Medium (2) sensitivity

Compound | 3 # High [1] | 1 # of Low [2] | 2 # Medium [3] | 1 # of Low | 2 # Medium | 3 # High
CS(=O)(=O)OCCCCOS(C)(=O)=O [Busulfan] | 8 | 24 | 28 | – | – | –
O=C1c2c(O)ccc(O)c2C(=O)c2c(NCCNCCO)ccc(NCCNCCO)c21 [Mitoxantrone] | 17 | 18 | 25 | – | – | –
CC[C@]1(O)C[C@H]2CN(CCc3c([nH]c4ccccc34)[C@@](C(=O)OC)(c3cc4c(cc3OC)N(C=O)[C@H]3[C@@](O)(C(=O)OC)[C@H](OC(C)=O)[C@]5(CC)C=CCN6CC[C@]43[C@@H]65)C2)C1 [Vincristine sulfate] | 20 | 7 | 33 | – | – | –
CC[C@]1(O)C[C@@H]2CN(CCc3c([nH]c4ccccc34)[C@@](C(=O)OC)(c3cc4c(cc3OC)N(C)[C@H]3[C@@](O)(C(=O)OC)[C@H](OC(C)=O)[C@]5(CC)C=CCN6CC[C@]43[C@@H]65)C2)C1 [Vinblastine sulfate] | 15 and 14 | 9 and 8 | 36 and 38 | – | – | –
Sc1ncnc2nc[nH]c12 [6-mercaptopurine] | 7 | 12 | 41 | – | – | –
NC(=O)NO [Hydroxyurea] | 11 | 15 | 34 | – | – | –
COc1cc([C@@H]2c3cc4c(cc3[C@@H](O[C@@H]3O[C@@H]5CO[C@@H](c6cccs6)O[C@H]5[C@H](O)[C@H]3O)[C@H]3COC(=O)[C@H]23)OCO4)cc(OC)c1O [Teniposide] | 7 | 5 | 48 | – | – | –
O=NN(CCCl)C(=O)NCCCl [BCNU] | – | – | – | 13 | 37 | 10
N[C@@H](Cc1ccc(N(CCCl)CCCl)cc1)C(=O)O [Melphalan] | 9 | 5 | 46 | – | – | –
COc1cc([C@@H]2c3cc4c(cc3[C@@H](O[C@@H]3O[C@@H]5CO[C@@H](C)O[C@H]5[C@H](O)[C@H]3O)[C@H]3COC(=O)[C@H]23)OCO4)cc(OC)c1O [Etoposide] | 10 | 12 | 38 | – | – | –
CC(=O)O[C@H]1C(=O)[C@@]2(C)[C@H]([C@H](OC(=O)c3ccccc3)[C@]3(O)C[C@H](OC(=O)[C@H](O)[C@@H](NC(=O)c4ccccc4)c4ccccc4)C(C)=C1C3(C)C)[C@]1(OC(C)=O)CO[C@@H]1C[C@@H]2O [TAXOL, paclitaxel] | 13 and 10 and 9 | 11 and 14 and 8 | 36 and 43 | – | – | –
COc1cccc2c1C(=O)c1c(O)c3c(c(O)c1C2=O)C[C@@](O)(C(=O)CO)C[C@@H]3OC1CC(N)CC(C)O1.Cl (some centres unmarked) [Deoxydoxorubicin] | 7 | 11 and 9 | 42 and 44 | – | – | –
N.N.[Cl][Pt][Cl] [cisplatin, cis-Diamminedichloroplatinum (II)] | 8 and 12 | – | 42 and 41 and 32 | – | – | –
COc1cccc2c1C(=O)c1c(O)c3c(c(O)c1C2=O)C[C@@](O)(C(C)=O)C[C@@H]3O[C@H]1C[C@H](N)[C@H](O)[C@H](C)O1 [Daunorubicin] | 6 and 10 | 24 and 20 | 30 | – | – | –
OC[C@H]1O[C@@H](n2cnc3c2N=CNC[C@H]3O)C[C@@H]1O [2′-deoxycoformycin] | – | – | – | 9 | 43 | 8
Nc1ccn([C@@H]2O[C@H](CO)[C@@H](O)[C@@H]2O)c(=O)n1 [AraC] | – | – | – | 17 | 33 | 10
COc1cccc2c1C(=O)c1c(O)c3c(c(O)c1C2=O)C[C@@](O)(C(=O)CO)C[C@@H]3O[C@H]1C[C@H](N)[C@H](O)[C@H](C)O1 [Adriamycin] | 5 | 7 | 48 | – | – | –
O=c1[nH]cc(F)c(=O)[nH]1 [5-Fluorouracil] | 8 | 13 | 39 | – | – | –
CN(Cc1cnc2nc(N)nc(N)c2n1)c1ccc(C(=O)N[C@@H](CCC(=O)O)C(=O)O)cc1 [Methotrexate] | 15 and 19 | 17 and 15 | 28 and 26 | – | – | –
O=C(O)CCCc1ccc(N(CCCl)CCCl)cc1 [Chlorambucil] | 9 | 24 | 27 | – | – | –
